In PMC7540872:
These are yes or no findings as the source states them, for the method shown. Binding seen in cells or lysates may run through a third protein. Some entries that bind do so weakly or less than the wild type. For part of these data: Tags and fused reporters may be left off the sequences shown.

Amino acid sequences for entries named in this document (tags omitted).
UniProt Q9RBS2: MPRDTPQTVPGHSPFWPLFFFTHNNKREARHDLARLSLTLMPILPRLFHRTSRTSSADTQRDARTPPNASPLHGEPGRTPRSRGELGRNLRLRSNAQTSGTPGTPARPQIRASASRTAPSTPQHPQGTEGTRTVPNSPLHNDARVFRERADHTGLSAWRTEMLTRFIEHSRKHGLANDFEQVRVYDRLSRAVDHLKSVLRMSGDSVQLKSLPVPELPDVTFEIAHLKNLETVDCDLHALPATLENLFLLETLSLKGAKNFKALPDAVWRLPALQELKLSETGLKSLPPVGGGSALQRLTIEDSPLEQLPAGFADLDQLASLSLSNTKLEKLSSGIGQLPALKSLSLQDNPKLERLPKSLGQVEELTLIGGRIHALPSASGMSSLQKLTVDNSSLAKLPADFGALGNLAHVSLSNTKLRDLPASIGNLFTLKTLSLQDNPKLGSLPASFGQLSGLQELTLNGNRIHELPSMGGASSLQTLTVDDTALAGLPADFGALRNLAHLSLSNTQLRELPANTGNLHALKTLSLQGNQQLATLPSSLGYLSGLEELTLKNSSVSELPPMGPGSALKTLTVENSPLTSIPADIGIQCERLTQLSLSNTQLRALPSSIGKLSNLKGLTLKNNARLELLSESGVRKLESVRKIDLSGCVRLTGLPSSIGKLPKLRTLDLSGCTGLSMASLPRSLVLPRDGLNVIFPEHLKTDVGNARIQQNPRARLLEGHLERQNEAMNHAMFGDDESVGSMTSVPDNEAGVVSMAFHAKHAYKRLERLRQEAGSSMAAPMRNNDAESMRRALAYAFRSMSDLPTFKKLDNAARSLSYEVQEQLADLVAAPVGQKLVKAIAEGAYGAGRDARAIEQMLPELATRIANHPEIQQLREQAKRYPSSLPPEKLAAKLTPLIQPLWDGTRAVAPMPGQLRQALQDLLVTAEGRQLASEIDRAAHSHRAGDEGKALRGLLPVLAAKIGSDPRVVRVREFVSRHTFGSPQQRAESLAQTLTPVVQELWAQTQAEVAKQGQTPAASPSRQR

Assays:
[1] = biological target: T1, cLUC-AtSGT1b (Arabidopsis) (UniProt Q9SUT5); test: split reporter
T1 sequence: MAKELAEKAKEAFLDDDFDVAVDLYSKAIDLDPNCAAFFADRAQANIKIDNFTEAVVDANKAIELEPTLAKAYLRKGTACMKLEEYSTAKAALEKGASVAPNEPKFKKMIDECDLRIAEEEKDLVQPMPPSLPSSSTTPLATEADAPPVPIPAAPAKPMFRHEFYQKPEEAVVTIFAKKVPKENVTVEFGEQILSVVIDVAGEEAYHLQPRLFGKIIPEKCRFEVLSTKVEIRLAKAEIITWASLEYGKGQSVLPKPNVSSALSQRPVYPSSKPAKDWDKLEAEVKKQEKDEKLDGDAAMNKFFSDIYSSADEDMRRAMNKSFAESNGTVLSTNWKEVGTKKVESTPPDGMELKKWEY

[2] = biological target: RipAC tagged with one of the portions of a split-YFP molecule (Ralstonia solanacearum GMI1000) (UniProt Q9RBS2); test: split reporter
[3] = biological target: T2, RPS2 fused to a luciferase half (UniProt Q42484); test: split reporter; Split-LUC in N. benthamiana leaves (Agrobacterium OD600 = 0.2); CCD imaging and microplate luminescence reader
T2 sequence: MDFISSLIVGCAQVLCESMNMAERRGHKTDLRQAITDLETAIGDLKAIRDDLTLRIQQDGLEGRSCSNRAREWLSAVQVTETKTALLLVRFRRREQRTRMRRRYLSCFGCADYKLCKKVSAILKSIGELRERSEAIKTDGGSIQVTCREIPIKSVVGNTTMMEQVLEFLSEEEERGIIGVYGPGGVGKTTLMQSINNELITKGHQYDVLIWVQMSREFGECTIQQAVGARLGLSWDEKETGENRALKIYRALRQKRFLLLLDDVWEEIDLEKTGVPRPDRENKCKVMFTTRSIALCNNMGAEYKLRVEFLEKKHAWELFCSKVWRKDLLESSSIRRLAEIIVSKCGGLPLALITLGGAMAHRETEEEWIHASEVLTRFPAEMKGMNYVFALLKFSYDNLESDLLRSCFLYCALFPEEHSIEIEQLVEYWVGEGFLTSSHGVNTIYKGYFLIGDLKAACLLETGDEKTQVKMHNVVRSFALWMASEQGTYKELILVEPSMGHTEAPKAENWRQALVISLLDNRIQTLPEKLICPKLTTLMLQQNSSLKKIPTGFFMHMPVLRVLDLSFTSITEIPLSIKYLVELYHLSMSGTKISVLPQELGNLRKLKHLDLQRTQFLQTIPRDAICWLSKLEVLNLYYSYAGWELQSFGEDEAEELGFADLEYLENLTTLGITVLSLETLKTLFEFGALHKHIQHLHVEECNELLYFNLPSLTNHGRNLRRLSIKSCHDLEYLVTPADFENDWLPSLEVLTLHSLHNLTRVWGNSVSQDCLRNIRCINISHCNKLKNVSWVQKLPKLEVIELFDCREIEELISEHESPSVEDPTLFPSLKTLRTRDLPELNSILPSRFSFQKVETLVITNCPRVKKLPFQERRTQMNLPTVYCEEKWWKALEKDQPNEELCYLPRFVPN

[4] = biological target: RipAC-GFP (Ralstonia solanacearum GMI1000) (UniProt Q9RBS2); test: co-IP

Row | Molecule | binding [2] | binding [3] | other results
1 | RipAC-GFP (from UniProt Q9RBS2 1-1024) |  |  | binding [1]: binds
2 | AtSGT1a tagged with one of the portions of a split-YFP molecule (protein, UniProt Q9SUR9 1-350) MAKELADKAKEAFVDDDFDVAVDLYSKAIDLDPNCAEFFADRAQAYIKLESFTEAVADANKAIELDPSLTKAYLRKGTACMKLEEYRTAKTALEKGASITPSESKFKKLIDECNFLITEEEKDLVQPVPSTLPSSVTAPPVSELDVTPTAKYRHEYYQKPEEVVVTVFAKGIPKQNVNIDFGEQILSVVIEVPGEDAYYLQPRLFGKIIPDKCKYEVLSTKIEICLAKADIITWASLEHGKGPAVLPKPNVSSEVSQRPAYPSSKKVKDWDKLEAEVKKQEKDEKLEGDAALNKFFREIYQNADEDMRRAMSKSFVESNGTVLSTNWQEVGTKTIESTPPDGMELKKWEI | binds |  | 
3 | AtSGT1b tagged with one of the portions of a split-YFP molecule (protein, UniProt Q9SUT5 1-358) MAKELAEKAKEAFLDDDFDVAVDLYSKAIDLDPNCAAFFADRAQANIKIDNFTEAVVDANKAIELEPTLAKAYLRKGTACMKLEEYSTAKAALEKGASVAPNEPKFKKMIDECDLRIAEEEKDLVQPMPPSLPSSSTTPLATEADAPPVPIPAAPAKPMFRHEFYQKPEEAVVTIFAKKVPKENVTVEFGEQILSVVIDVAGEEAYHLQPRLFGKIIPEKCRFEVLSTKVEIRLAKAEIITWASLEYGKGQSVLPKPNVSSALSQRPVYPSSKPAKDWDKLEAEVKKQEKDEKLDGDAAMNKFFSDIYSSADEDMRRAMNKSFAESNGTVLSTNWKEVGTKKVESTPPDGMELKKWEY | binds |  | 
4 | cLUC-AtSGT1b (protein, UniProt Q9SUT5 1-358) MAKELAEKAKEAFLDDDFDVAVDLYSKAIDLDPNCAAFFADRAQANIKIDNFTEAVVDANKAIELEPTLAKAYLRKGTACMKLEEYSTAKAALEKGASVAPNEPKFKKMIDECDLRIAEEEKDLVQPMPPSLPSSSTTPLATEADAPPVPIPAAPAKPMFRHEFYQKPEEAVVTIFAKKVPKENVTVEFGEQILSVVIDVAGEEAYHLQPRLFGKIIPEKCRFEVLSTKVEIRLAKAEIITWASLEYGKGQSVLPKPNVSSALSQRPVYPSSKPAKDWDKLEAEVKKQEKDEKLDGDAAMNKFFSDIYSSADEDMRRAMNKSFAESNGTVLSTNWKEVGTKKVESTPPDGMELKKWEY |  | binds | 
5 | AtSGT1b T346A fused to a luciferase half (protein, UniProt Q9SUT5 1-358) MAKELAEKAKEAFLDDDFDVAVDLYSKAIDLDPNCAAFFADRAQANIKIDNFTEAVVDANKAIELEPTLAKAYLRKGTACMKLEEYSTAKAALEKGASVAPNEPKFKKMIDECDLRIAEEEKDLVQPMPPSLPSSSTTPLATEADAPPVPIPAAPAKPMFRHEFYQKPEEAVVTIFAKKVPKENVTVEFGEQILSVVIDVAGEEAYHLQPRLFGKIIPEKCRFEVLSTKVEIRLAKAEIITWASLEYGKGQSVLPKPNVSSALSQRPVYPSSKPAKDWDKLEAEVKKQEKDEKLDGDAAMNKFFSDIYSSADEDMRRAMNKSFAESNGTVLSTNWKEVGTKKVESAPPDGMELKKWEY |  | binds | 
6 | AtSGT1b (transiently expressed, CoIP) (protein, UniProt Q9SUT5 1-358) MAKELAEKAKEAFLDDDFDVAVDLYSKAIDLDPNCAAFFADRAQANIKIDNFTEAVVDANKAIELEPTLAKAYLRKGTACMKLEEYSTAKAALEKGASVAPNEPKFKKMIDECDLRIAEEEKDLVQPMPPSLPSSSTTPLATEADAPPVPIPAAPAKPMFRHEFYQKPEEAVVTIFAKKVPKENVTVEFGEQILSVVIDVAGEEAYHLQPRLFGKIIPEKCRFEVLSTKVEIRLAKAEIITWASLEYGKGQSVLPKPNVSSALSQRPVYPSSKPAKDWDKLEAEVKKQEKDEKLDGDAAMNKFFSDIYSSADEDMRRAMNKSFAESNGTVLSTNWKEVGTKKVESTPPDGMELKKWEY |  |  | binding [4]: binds
